Assay results from PubChem BioAssay AID2685 (National Center for Advancing Translational Sciences (NCATS), 2010).
Some of the results follow. Further columns of the screen follow, without active or inactive calls. Most of these compounds were active or inconclusive in the main read-out, so they are no random draw. Potencies come from curve fits of mixed quality, noted in brackets.

Assay: qHTS Assay for Lipid Storage Modulators in Drosophila S3 Cells;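 for cell number change: cells counted by Cell Tracker Red CMTPX staining in the red channel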
Settings: BODIPY lipid droplet fluorescence, 18-24 h; for cell number change: measured here: cell count max response, cells fed with added oleic acid
In short: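 Drosophila S3 cells loaded with oleic acid (400 uM, as added) and compounds at several concentrations; lipid droplets imaged by 488-nm laser-scanning cytometry, 500–530 nm intensity and object ratio to cell channel. Percent activity normalized to 20 uM Triacsin C.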

[1] = measured here: cell number channel AC50, cells fed with added oleic acid
[2] = measured here: lipid fluorescence (Fed channel) AC50, cells fed with added oleic acid

SMILES | AC50 [1] | AC50 [2] | cell number change [%]
COc1ccccc1NC(=O)N(Cc1ccccc1)c1ccccn1 | 6.51 µM [rising, single point] | 8.2 µM [rising, partial curve] | 
CC(OC(=O)Cc1coc2cc3c(cc12)CCC3)C(=O)NC(N)=O (stereo not drawn) | 9.2 µM [rising, single point] |  | 30.1
O=C1CCCC(O)=C1C=Nc1ccc2c(c1)oc1ccccc12 |  | 4.11 µM [rising, single point] | 11.9
COc1ccc(-c2cc(=O)oc3cc(OCC(=O)NCCN4CCOCC4)ccc23)cc1 |  |  | 29.8
CCN(CC(=O)NCc1ccc(F)cc1)C(=O)c1ccc(Cl)cc1 |  | 2.59 µM [rising, full curve] | 16.7
CCOC(=O)CC(=O)CSc1nc2c(sc(=S)n2-c2ccc(C)c(C)c2)c(=O)[nH]1 | 2.31 µM [rising, partial curve, poor fit] |  | -12.7
COc1ccc(CN2CCNC(=O)C2CC(=O)NCCc2cnccn2)cc1C (stereo not drawn) |  |  | 2.49
COc1ccc(NC(=O)N(Cc2cc3cc(C)ccc3[nH]c2=O)CC2CCCO2)cc1 (stereo not drawn) |  | 0.231 µM [rising, full curve, poor fit] | 19.2
Cn1c(=O)c2cc(S(=O)(=O)NCCC(=O)NCC3CCCO3)ccc2n(C)c1=O (stereo not drawn) | 6.51 µM [falling, single point] | 6.51 µM [falling, single point] | 
O=C(CNC(c1ccccc1)c1ccccc1)Nc1ccccc1-c1ccccc1 |  | 18.4 µM [falling, single point] | -18.1
CCCOC(=O)C1[C@H]2C(=O)N(C(C)c3ccc(OC)cc3)C[C@]23C=C[C@H]1O3 (stereo partly drawn) | 0.92 µM [rising, full curve, poor fit] |  | 19.5
COc1ccc(CNC(=O)CN(Cc2ccc(OC)cc2)C(=O)CCC(=O)Nc2ccccn2)cc1 | 1.84 µM [rising, full curve, poor fit] |  | 28.2
O=C(c1ccco1)N1CCN(C(=O)c2ccc(-c3cccc(C(F)(F)F)c3)o2)CC1 | 32.6 µM [falling, single point] | 29.1 µM [falling, single point] | -44.4
O=C(Cn1c(=O)sc2ccccc21)Nc1ccc(S(=O)(=O)N2CCCC2)cc1 | 11.6 µM [rising, partial curve] | 20.6 µM [rising, partial curve] | 53.4
O=C(NCCN1CCOCC1)c1cc([N+](=O)[O-])ccc1Cl |  | 29.1 µM [rising, single point] | 8.8
COc1cccc(C2C(C(=O)c3cccs3)=C(O)C(=O)N2CCN2CCOCC2)c1OC (stereo not drawn) |  |  | 12.5
CC1CCCN(C(=O)c2ccc(COc3ccccc3Br)cc2)C1 (stereo not drawn) | 1.64 µM [falling, partial curve] |  | -42.4
Cc1ccc(CNC(=O)Cn2cnc3c(NC(=O)OCc4ccccc4)ncnc32)o1 | 0.517 µM [falling, partial curve] | 0.116 µM [falling, full curve, poor fit] | -20.1
CCCNc1ccc(S(=O)(=O)N(C(C)C)C(C)C)cn1 |  | 29.1 µM [rising, single point] | 14.7
Cc1cc(C)n2nc(-c3ccccc3)c(-c3ccccc3)c2n1 |  |  | -2.65
COc1ccccc1OCCNC(=O)CN1C(=O)NC2(CCCC2)C1=O | 29.1 µM [falling, single point] |  | -50

One compound at a time, from the list above:
CCN(CC(=O)NCc1ccc(F)cc1)C(=O)c1ccc(Cl)cc1 is listed with AC50 [2]: 2.59 µM [rising, full curve]; cell number change [%]: 16.7
COc1cccc(C2C(C(=O)c3cccs3)=C(O)C(=O)N2CCN2CCOCC2)c1OC (stereo not drawn) is listed with cell number change [%]: 12.5
O=C(Cn1c(=O)sc2ccccc21)Nc1ccc(S(=O)(=O)N2CCCC2)cc1 is listed with AC50 [1]: 11.6 µM [rising, partial curve]; AC50 [2]: 20.6 µM [rising, partial curve]; cell number change [%]: 53.4
CC1CCCN(C(=O)c2ccc(COc3ccccc3Br)cc2)C1 (stereo not drawn) is listed with AC50 [1]: 1.64 µM [falling, partial curve]; cell number change [%]: -42.4

(further entries)

SMILES | AC50 [1] | AC50 [2] | cell number change [%]
CCOc1ccc2[nH]cc(C(=O)NCc3ccccc3)c(=O)c2c1 |  | 29.1 µM [falling, single point] | -19.4
COc1ccc(C(=O)/C(=C\c2ccco2)N2C=CC=CC2=C(C#N)C#N)cc1 | 29.1 µM [falling, single point] | 14.6 µM [falling, partial curve] | -62.1
CCCCNC(=O)c1cn(CC)c2cc(N3CCN(C(=O)c4ccco4)CC3)c(F)cc2c1=O |  |  | 11.5
CCC(C)NC(=O)CCn1ccc2cc(S(=O)(=O)N3CCCC3)ccc21 (stereo not drawn) |  | 29.1 µM [rising, single point] | 16.4
Cc1cccc2nc(CSc3nc4ccccc4o3)cn12 |  | 4.11 µM [rising, full curve] | 24.3
CCCCOCCCNC(=O)c1ccc(OC)cc1 | 5.17 µM [falling, partial curve, poor fit] |  | 
CCN(CC)c1ccc(NS(=O)(=O)c2cn(C)c(=O)n(C)c2=O)c(C)c1 |  |  | -26.2
CCP(=O)(c1ccccc1)C(C)(C)O (stereo not drawn) | 16.4 µM [falling, single point] | 18.4 µM [falling, single point] | -34.6
COc1ccc(O)c(CN2CCCC(N3CCc4ccccc4C3)C2)c1 (stereo not drawn) |  | 29.1 µM [rising, single point] | 19.5
COc1ccccc1CNC(=O)[C@@H]1CCCN1S(=O)(=O)c1ccc(C)cc1 |  |  | 0.677
COCc1cc(Sc2c(Cl)cccc2Cl)nc(-c2ccccc2)n1 |  |  | -24.2
Cc1ccc(-c2noc(CN(C(=O)c3cccc(Br)c3)C(C)C)n2)cc1 |  | 0.0731 µM [rising, full curve, poor fit] | 6.72
CC(C)Oc1ccc(C(CC(=O)O)NC(=O)Cc2ccc(Cl)cc2)cc1 (stereo not drawn) |  | 20.6 µM [rising, single point] | -2.95
O=C(CN(Cc1ccc(Cl)cc1)C(=O)c1csnn1)NCc1ccc(F)cc1 |  |  | 8.97
O=C(CCc1ccncc1)NC1CCCc2c1cnn2-c1cc(F)cc(F)c1 (stereo not drawn) |  | 29.1 µM [rising, single point] | 
NC(=O)c1nc(C(=O)N2CCN(c3ccccc3)CC2)c2ccccc2n1 |  | 0.0058 µM [falling, full curve, poor fit] | 16
CC(C)C(=O)Nc1ccc(Cl)cc1-c1nc2ccccc2[nH]c1=O |  | 0.103 µM [falling, full curve, poor fit] | 
Cn1nnnc1SCC(=O)c1c(N)n(C2CC2)c(=O)[nH]c1=O |  |  | 5.91
COc1ccc2c(c1)C(=O)N(c1ccccc1C)C(=O)C2(C)C | 5.8 µM [rising, full curve] |  | 63.8
Cc1ccc(-c2nc(-c3ccncc3)no2)cc1C |  |  | -28
Cc1cccn2c(=O)c(C(=O)NC3CCCCC3C)c(O)nc12 (stereo not drawn) | 3.66 µM [falling, full curve, poor fit] | 20.6 µM [falling, single point] | -26.9

SMILES | AC50 [1] | AC50 [2] | cell number change [%]
Clc1ccc(Cc2nc(-c3cccnc3)no2)cc1 |  | 29.1 µM [rising, single point] | 10.3
O=C(CCCOc1ccc(Cl)cc1Cl)N/N=C/c1ccc(Cl)cc1 | 14.6 µM [falling, partial curve] | 16.4 µM [falling, single point] | -67.8
CC1=CC(C)(C)Nc2ccc(OC(=O)C(Cc3ccccc3)N3C(=O)c4ccccc4C3=O)cc21 (stereo not drawn) |  | 1.3 µM [rising, full curve] | 22.8
Cc1ccc(S(=O)(=O)N(C)c2ccc(OCC(=O)N3CCCCC3)cc2)cc1 |  | 3.26 µM [rising, single point] | 12
O=C(NCc1cccnc1)NC1CCCN1S(=O)(=O)c1ccc(Cl)cc1 (stereo not drawn) |  | 29.1 µM [rising, single point] | 18
Cc1nn(C)c(C(=O)N/N=C/c2ccncc2)c1Cl |  | 2.91 µM [falling, single point] | 7.47
COc1ccc(NC(=O)CSc2ccc3nnc(CCNC(=O)c4ccccc4)n3n2)cc1 |  | 29.1 µM [rising, single point] | 
CCCCN(C)C(=S)Nc1ccsc1C(=O)OC | 2.31 µM [rising, partial curve] | 2.31 µM [rising, partial curve] | 14.2
Cc1cccc(OCC(=O)NNC(=O)c2ccc([N+](=O)[O-])cc2)c1 |  |  | -1.59
C=CCn1c(SCC(=O)NCCCO)nc2sc3c(c2c1=O)CCC3 | 6.51 µM [rising, single point] |  | 2.33
CCOc1ccc(OCCCC(=O)O)cc1 | 3.66 µM [falling, full curve] | 6.51 µM [falling, single point] | -51.3
C=CCNC(=O)/C(C#N)=C/c1c(N2CCCCCC2)nc2ccccn2c1=O |  | 16.4 µM [falling, single point] | -2.13
COC(=O)c1ccccc1NC(=O)Nc1cc(C)cc(C)n1 | 25.9 µM [falling, partial curve] | 23.1 µM [falling, partial curve] | -169
O=C(NNC(=S)NCc1ccccc1)c1ccc(Br)cc1 |  |  | 10.9
COc1ccccc1C(C)NC(=O)c1cc(S(=O)(=O)N2CCCCC2)ccc1C (stereo not drawn) |  | 0.82 µM [falling, full curve, poor fit] | 38.4
CCOC(=O)c1c(C)[nH]c(NC(=O)N2CCOCC2)c1C |  |  | 1.97
CCOC(=O)CCc1c(C)nc2c(c(C)nn2C(C)(C)C)c1C | 14.6 µM [falling, single point] | 13 µM [falling, partial curve] | -40.9
Cc1nc2ccc(S(=O)(=O)NCC(=O)N3CCc4ccccc43)cc2s1 |  | 16.4 µM [rising, single point] | 0.619
CC(=O)Nc1ccc2c(c1)CCC2=O |  | 20.6 µM [falling, single point] | -69.6
CCOC(=O)c1c(NC(=O)CSc2nnnn2-c2ccccc2)sc2c1CC(C)(C)NC2(C)C | 20.6 µM [falling, partial curve, poor fit] | 6.51 µM [rising, partial curve] | -39.5
